The list shows a part of the results. These are further read-outs of the screen, such as a control signal, another cell line or another target. No call is given for them. Most of these compounds were active or inconclusive in the main read-out, so they are no random draw. Potencies come from curve fits of mixed quality, noted in brackets.
Assay: qHTS Assay to Find Inhibitors of Chronic Active B-Cell Receptor Signaling
Settings: ABC-DLBCL IkBa-CBG/CBR reporter, luminescence ratio (green luciferase fused to IkBa over red control in TMD8 lymphoma cells), 4 h
Procedure, shortened: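 Doxycycline induced both beetle luciferases in TMD8 lymphoma cells; IKK-driven degradation limits the IkappaBalpha-fused green signal, while red luminescence normalises for cell number and nonspecific effects. Compounds tested up to 46 uM, 4 hrs.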

[1] = measured here: CBR red luminescence, cell number

SMILES	AC50 [1]	AC50 (measured here: IkBa-CBG green luminescence)
O=C(CN1C(=O)C2CC=CCC2C1=O)Nc1nc(-c2ccc(F)c(F)c2)cs1 (stereo not drawn)	16.4 µM [falling, partial curve, poor fit]	
N/C(=N\OC(=O)C1CCCCC1)c1ccc(Br)cc1	11.2 µM [rising, partial curve, poor fit]	
Cc1ccc(OCc2nc(-c3cccs3)no2)c([N+](=O)[O-])c1	0.631 µM [rising, full curve, poor fit]	
CCc1nnnn1-c1ccc([N+](=O)[O-])cc1C	22.4 µM [rising, single point]	
Cc1ccc(C(=O)OCC(=O)Nc2ccc3c(c2)OCO3)c(O)c1	1.3 µM [rising, partial curve, poor fit]	
CCN(CC)c1ccc(NC(=O)c2ccc3c(c2)OCO3)cc1	8.91 µM [falling, partial curve, poor fit]	
Cc1cccc(/N=C/c2c(O)[nH]c3ccccc23)n1	17.8 µM [falling, single point]	
COc1ccc(N=NC2=C(O)CC(C)(C)CC2=O)cc1	35.5 µM [falling, single point]	
COc1cccc2cc(CC(=O)c3ccc(C)cc3C)c(=O)oc12	2 µM [falling, partial curve, poor fit]	
COc1ccc(/C=N/n2cnc3scc(-c4cccs4)c3c2=O)cc1OC	3.66 µM [rising, partial curve, poor fit]	
CC1(C)Cc2c(C#N)c(SCC(=O)c3ccccc3)nc(N3CCOCC3)c2CO1	0.282 µM [rising, full curve, poor fit]	
CCCCC12CN3CCN(CC(C3)/C1=N\NC(=O)c1ccccc1N)C2	25.9 µM [falling, partial curve]	
CCc1nc2ccccc2c(C(=O)OCc2nc3ccccc3c(=O)[nH]2)c1C	8.2 µM [rising, full curve, poor fit]	4.61 µM [falling, partial curve]
COc1ccc(SCCc2ccncc2)cc1	31.6 µM [rising, single point]	
CCCCN(C)Cc1c(O)ccc2c(-c3ccccc3)cc(=O)oc12	20.6 µM [falling, single point]	
CCC(=O)Nc1cccc(C2=NOC3(C2)C[C@@H](C(N)=O)N(C(=O)c2cc([N+](=O)[O-])cc([N+](=O)[O-])c2)C3)c1 (stereo partly drawn)	35.5 µM [rising, single point]	
COc1ccc(CCNC(=O)/C=C\c2ccccc2)cc1OC	29.1 µM [rising, single point]	

Reformatted with bars between the fields: part of the list above
SMILES | AC50 [1] | AC50 (measured here: IkBa-CBG green luminescence)
CCCCN(C)Cc1c(O)ccc2c(-c3ccccc3)cc(=O)oc12 | 20.6 µM [falling, single point] | 
CCC(=O)Nc1cccc(C2=NOC3(C2)C[C@@H](C(N)=O)N(C(=O)c2cc([N+](=O)[O-])cc([N+](=O)[O-])c2)C3)c1 (stereo partly drawn) | 35.5 µM [rising, single point] | 
